From publication PMC6747400, “Mismatch Recognition by Saccharomyces cerevisiae Msh2-Msh6: Role of Structure and Dynamics”

What follows are sequences tested on Msh2 + Msh6 (assay: EMSA). Conditions: apparent Kd; EMSA: 20 mM Tris-Cl pH 7.5, 100 mM NaCl, 5 mM MgCl2, 2% ficoll, 4 C, 10 nM DNA; recombinant protein; letters put together from the description.

Sequence	pKd
TATGCAGTCACTATGAATCAACTACTTAGATGGT (double strand) [G:C unlabeled]	7.18
TATGCAGTCACTATGAATCAACTACTTAGATGGT / ACCATCTAAGTAGTTGATTAATAGTGACTGCATA [G:A unlabeled]	7.35
TATGCAGTCACTATGAATCAACTACTTAGATGGT / ACCATCTAAGTAGTTGATTCTAGTGACTGCATA [+T unlabeled]	7.48
TATGCAGTCACTATGAATCAACTACTTAGATGGT / ACCATCTAAGTAGTTGATTTATAGTGACTGCATA [G:T unlabeled]	7.46

pKd: −log10 of the molar value. Construct, isoform or probe ends are uncertain for at least one entry.
